Measurements reported in PubChem BioAssay AID686938 (Drosophila RNAi Screening Center, 2013).

- Assay: 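Fly genes required for calcium entry once internal stores are emptied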 (primary screen)
- Cell system: Drosophila S2R+ cells
- Reagents: long dsRNA against Drosophila genes, about 0.25 µg dsRNA per well, roughly 10,000 cells
- Duration: 5 days of knock-down before the calcium assay
- Conditions: thapsigargin (SERCA pump blocker) to empty calcium stores; entry signal taken 4 min after adding it
- Detection: 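Duplicate raw fluo-4 intensities per well from a plate reader, at rest and four minutes after thapsigargin emptied calcium stores; entry-to-rest ratio filled for only some wells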
- Reading the numbers: calcium entry signal: higher = stronger calcium signal after store depletion; entry to resting ratio: higher = more calcium entry relative to resting level; resting calcium signal: higher = higher resting calcium signal
- Hit rule: 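Called when the plate z-score of the entry-to-rest ratio, mean of duplicates, falls below −3; wells with low overall dye signal (Fmax z below −2) or more than five off-targets excluded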
- Meaning of the calls: active = strongly reduced calcium entry; inactive = no strong reduction
In all, the deposit lists about 23,000 reagents; this is an unselected part of those with a known target gene and a result. In the full data, 75 (0.33%) are marked active. 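Raw plate signals without normalisation; calls rest on plate z-scores that were not deposited; ratio present for only 364 wells.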 A number with no mark means an inactive call. Names joined by + are all predicted targets of the reagent. Reagent sequences are not shown. Not given: the dose of the treatment.

The first 3 records as a preview:
| predicted target | dsRNA | calcium entry signal, replicate 1 (fluorescence units) | calcium entry signal, replicate 2 (fluorescence units) | entry to resting ratio | resting calcium signal, replicate 1 (fluorescence units) | resting calcium signal, replicate 2 (fluorescence units) |
| --- | --- | --- | --- | --- | --- | --- |
| CG9451 | DRSC11074 | 2.99e7 | 4.39e7 | – | 1.40e7 | 1.80e7 |
| Rpt6R | DRSC15431 | 3.92e7 | 4.30e7 | – | 1.96e7 | 1.89e7 |
| CG14073 | DRSC10078 | 2.30e7 | 5.17e7 | – | 1.17e7 | 1.99e7 |

The listing, from the first entry:
| predicted target | dsRNA | calcium entry signal, replicate 1 (fluorescence units) | calcium entry signal, replicate 2 (fluorescence units) | entry to resting ratio | resting calcium signal, replicate 1 (fluorescence units) | resting calcium signal, replicate 2 (fluorescence units) |
| --- | --- | --- | --- | --- | --- | --- |
| CG9451 | DRSC11074 | 2.99e7 | 4.39e7 | – | 1.40e7 | 1.80e7 |
| Rpt6R | DRSC15431 | 3.92e7 | 4.30e7 | – | 1.96e7 | 1.89e7 |
| CG14073 | DRSC10078 | 2.30e7 | 5.17e7 | – | 1.17e7 | 1.99e7 |
| CG12206 | DRSC17828 | 4.31e7 | 7.65e7 | 2.2 | 1.92e7 | 3.10e7 |
| Vha100-5 | DRSC02175 | 4.52e7 | 5.29e7 | – | 2.19e7 | 2.27e7 |
| CG4691 | DRSC01950 | 4.64e7 | – | – | 2.02e7 | – |
| p130CAS | DRSC07862 | 4.22e7 | 3.40e7 | – | 1.94e7 | 1.45e7 |
| p130CAS | DRSC08257 | 4.81e7 | 4.60e7 | – | 2.09e7 | 2.12e7 |
| Cpr72Ec | DRSC10449 | 3.70e7 | 4.67e7 | – | 1.84e7 | 3.17e7 |
| Tango6 | DRSC02671 | 3.15e7 | – | – | 1.59e7 | – |
| Gyc76C + CG42637 | DRSC11180 | 3.21e7 | 4.04e7 | – | 1.47e7 | 2.48e7 |
| ATPsynG | DRSC02928 | 4.10e7 | 4.49e7 | – | 2.13e7 | 1.90e7 |
| CG5104 | DRSC11765 | 2.70e7 | 4.20e7 | – | 1.30e7 | 1.79e7 |
| 7SLRNA:CR42652 + 7SLRNA:CR32864 | DRSC22968 | 3.34e7 | 2.78e7 | – | 1.76e7 | 1.54e7 |
| CG9747 | DRSC16554 | 4.87e7 | 4.38e7 | – | 2.27e7 | 2.36e7 |
| Ppat-Dpck | DRSC09744 | 4.20e7 | 5.43e7 | – | 2.08e7 | 2.30e7 |
| rdgA | DRSC17863 | 2.91e7 | 3.11e7 | – | 1.48e7 | 1.63e7 |
| rdgA | DRSC18036 | 3.02e7 | 3.18e7 | – | 1.45e7 | 1.52e7 |
| rdgA | DRSC18827 | 3.35e7 | 3.27e7 | – | 1.56e7 | 1.56e7 |
| Shab | DRSC08013 | 3.85e7 | 3.82e7 | – | 2.38e7 | 1.75e7 |
| Shab | DRSC08643 | 4.61e7 | 3.86e7 | – | 2.10e7 | 1.75e7 |
| Shab | DRSC08699 | 4.04e7 | 3.47e7 | – | 1.89e7 | 1.83e7 |
| Rok | DRSC20277 | 3.50e7 | 3.94e7 | – | 1.84e7 | 1.75e7 |
| Rok | DRSC23348 | 3.67e7 | 4.40e7 | – | 1.93e7 | 2.20e7 |
| Ir94b | DRSC21439 | 3.89e7 | 3.12e7 | – | 2.06e7 | 1.45e7 |
| Dlip1 | DRSC18460 | 2.04e7 | 2.55e7 | – | 1.12e7 | 1.27e7 |
| Noa36 | DRSC16761 | 5.58e7 | 5.58e7 | – | 2.32e7 | 2.61e7 |
| Vps13B | DRSC15060 | 4.50e7 | 5.66e7 | – | 2.25e7 | 2.25e7 |
| toe | DRSC09174 | 3.61e7 | 4.56e7 | – | 2.09e7 | 1.96e7 |
| toe | DRSC09783 | 3.34e7 | 3.51e7 | – | 1.79e7 | 1.49e7 |
| CG18268 + CG3014 | DRSC15319 | 3.59e7 | 3.06e7 | – | 1.90e7 | 1.52e7 |
| CG7227 | DRSC03032 | 4.58e7 | – | – | 2.34e7 | – |
| CG7974 | DRSC08607 | 4.03e7 | 3.63e7 | – | 1.73e7 | 1.64e7 |
| Atu | DRSC12123 | 3.98e7 | 4.26e7 | – | 1.82e7 | 1.88e7 |
| CG12116 | DRSC17812 | 4.08e7 | 5.02e7 | – | 2.01e7 | 2.24e7 |
| CG4942 | DRSC10462 | 4.37e7 | 3.37e7 | – | 3.15e7 | 1.43e7 |
| Cbp80 | DRSC18450 | 1.57e7 | 1.71e7 | – | 9.03e6 | 9.73e6 |
| CG32833 | DRSC04596 | 3.99e7 | – | – | 1.93e7 | – |
| Cpr47Ec | DRSC07332 | 2.59e7 | 2.96e7 | – | 1.30e7 | 1.24e7 |
| vtd | DRSC20839 | 3.51e7 | 2.66e7 | – | 2.21e7 | 1.61e7 |
